{"source": "patent US20220304950A1", "about": "“[…] THE TREATMENT OF PATIENTS WITH MAJOR DEPRESSIVE DISORDER, INCLUDING SUICIDALITY” (JANSSEN PHARMACEUTICALS, INC., priority 2019, published 2022)", "system": "adult patients with MDD assessed to be at imminent risk for suicide", "test": "Treatment disposition, Study 2 (Example 5)", "type": "in vivo, human", "settings": "Esk 84 mg + SOC, double-blind phase, all randomized", "protocol": "A total of 273 subjects were screened across 50 sites in 12 countries throughout the study period. Of those, 230 subjects were randomized to 1 of 2 treatment groups in a 1:1 ratio (115 in esketamine 84 mg+SOC and 115 in placebo+SOC). Randomization was stratified by study center and by the physician's assessment of the subject's need of standard of care antidepressant treatment (i.e., antidepressant monotherapy or an antidepressant plus augmentation therapy); the standard of care was determined prior to randomization on Day 1. […] The mean age was 40.8 years, ranging from 18 to 64 years."}
{"compound": "CN[C@]1(c2ccccc2Cl)CCCCC1=O", "note": "[esketamine, (S)-2-(2-chlorophenyl)-2-(methylamino)cyclohexanone]", "values": [{"measurement": "Completed study treatment, subjects %", "value": 78.3, "unit": "%"}, {"measurement": "Discontinuation due to lack of efficacy, subjects %", "value": 1.7, "unit": "%"}, {"measurement": "Discontinuation: lost to follow-up, subjects %", "value": 0.9, "unit": "%"}, {"measurement": "Discontinuation: other reason, subjects %", "value": 2.6, "unit": "%"}, {"measurement": "Discontinuation: withdrawal by subject, %", "value": 8.7, "unit": "%"}, {"measurement": "Discontinued study treatment, subjects %", "value": 21.7, "unit": "%"}]}
